Test results from article PMC3694860.

Protein sequences, listed by entry. Tags and fused reporters are not part of them.
UniProt Q92841: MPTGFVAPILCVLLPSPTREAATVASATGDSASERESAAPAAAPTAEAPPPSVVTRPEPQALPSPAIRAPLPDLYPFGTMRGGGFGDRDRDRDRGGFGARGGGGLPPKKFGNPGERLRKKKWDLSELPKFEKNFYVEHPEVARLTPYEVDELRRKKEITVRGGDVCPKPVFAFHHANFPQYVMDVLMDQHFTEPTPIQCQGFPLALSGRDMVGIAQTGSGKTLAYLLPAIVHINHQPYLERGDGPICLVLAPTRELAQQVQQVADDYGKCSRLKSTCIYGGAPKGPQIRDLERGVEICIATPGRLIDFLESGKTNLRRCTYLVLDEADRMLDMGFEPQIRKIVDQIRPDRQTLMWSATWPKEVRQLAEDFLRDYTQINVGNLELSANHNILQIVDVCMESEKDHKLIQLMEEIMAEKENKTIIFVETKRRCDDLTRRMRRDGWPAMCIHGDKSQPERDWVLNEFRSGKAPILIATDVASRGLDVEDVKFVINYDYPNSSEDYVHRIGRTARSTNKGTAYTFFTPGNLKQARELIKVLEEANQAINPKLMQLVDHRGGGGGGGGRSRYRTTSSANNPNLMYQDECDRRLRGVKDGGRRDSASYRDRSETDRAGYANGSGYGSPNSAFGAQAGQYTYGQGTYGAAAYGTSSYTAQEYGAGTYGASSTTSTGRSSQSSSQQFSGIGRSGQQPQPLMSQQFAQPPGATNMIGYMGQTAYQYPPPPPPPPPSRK
UniProt P08238: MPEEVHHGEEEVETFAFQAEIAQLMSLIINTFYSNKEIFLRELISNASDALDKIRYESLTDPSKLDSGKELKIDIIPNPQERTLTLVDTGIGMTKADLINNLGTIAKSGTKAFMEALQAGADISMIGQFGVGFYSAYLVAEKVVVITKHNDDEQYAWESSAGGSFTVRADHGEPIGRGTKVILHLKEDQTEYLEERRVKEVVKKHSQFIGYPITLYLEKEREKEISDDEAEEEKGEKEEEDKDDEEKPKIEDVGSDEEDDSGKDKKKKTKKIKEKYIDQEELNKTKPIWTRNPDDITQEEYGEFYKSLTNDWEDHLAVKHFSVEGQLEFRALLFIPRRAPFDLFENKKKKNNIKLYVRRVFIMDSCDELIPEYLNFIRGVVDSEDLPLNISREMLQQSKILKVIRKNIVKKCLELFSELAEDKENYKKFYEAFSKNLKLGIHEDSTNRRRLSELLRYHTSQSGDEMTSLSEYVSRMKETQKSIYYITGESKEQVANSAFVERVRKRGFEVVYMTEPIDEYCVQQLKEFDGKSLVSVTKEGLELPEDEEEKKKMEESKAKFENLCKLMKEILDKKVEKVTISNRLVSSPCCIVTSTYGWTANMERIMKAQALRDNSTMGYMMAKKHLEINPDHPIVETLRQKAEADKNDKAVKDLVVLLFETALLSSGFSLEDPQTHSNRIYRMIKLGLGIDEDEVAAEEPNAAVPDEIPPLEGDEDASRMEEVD
UniProt P09874: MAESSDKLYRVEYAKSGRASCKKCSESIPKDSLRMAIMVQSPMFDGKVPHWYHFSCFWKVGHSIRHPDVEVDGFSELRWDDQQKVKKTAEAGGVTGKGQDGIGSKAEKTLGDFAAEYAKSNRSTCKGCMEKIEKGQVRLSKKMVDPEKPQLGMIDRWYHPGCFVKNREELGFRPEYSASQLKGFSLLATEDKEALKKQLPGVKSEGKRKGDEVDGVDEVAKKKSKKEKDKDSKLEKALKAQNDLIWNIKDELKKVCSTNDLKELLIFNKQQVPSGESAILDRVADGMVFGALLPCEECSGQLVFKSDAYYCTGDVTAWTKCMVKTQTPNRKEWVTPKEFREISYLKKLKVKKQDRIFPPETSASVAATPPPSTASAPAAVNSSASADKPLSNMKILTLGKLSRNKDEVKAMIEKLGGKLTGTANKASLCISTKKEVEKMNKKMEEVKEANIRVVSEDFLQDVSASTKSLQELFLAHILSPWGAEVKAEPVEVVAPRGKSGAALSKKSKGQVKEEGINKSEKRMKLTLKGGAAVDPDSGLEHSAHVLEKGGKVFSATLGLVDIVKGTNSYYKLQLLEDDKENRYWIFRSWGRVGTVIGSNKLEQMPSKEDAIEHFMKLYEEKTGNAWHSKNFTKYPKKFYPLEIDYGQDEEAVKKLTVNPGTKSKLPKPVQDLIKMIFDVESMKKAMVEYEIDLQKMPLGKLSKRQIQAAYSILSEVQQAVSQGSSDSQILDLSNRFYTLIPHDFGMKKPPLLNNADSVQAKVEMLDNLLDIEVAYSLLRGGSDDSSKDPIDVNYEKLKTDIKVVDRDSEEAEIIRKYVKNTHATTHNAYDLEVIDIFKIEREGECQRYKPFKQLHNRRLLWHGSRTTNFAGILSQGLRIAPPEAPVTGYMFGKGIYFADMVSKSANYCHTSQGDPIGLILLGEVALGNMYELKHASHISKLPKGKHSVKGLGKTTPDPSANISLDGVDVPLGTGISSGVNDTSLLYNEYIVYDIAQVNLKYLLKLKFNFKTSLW

T1: NS1-binding protein (NS1-BP) (human (endogenous in HeLa and A549)) (UniProt Q9Y6Y0)
T1 sequence: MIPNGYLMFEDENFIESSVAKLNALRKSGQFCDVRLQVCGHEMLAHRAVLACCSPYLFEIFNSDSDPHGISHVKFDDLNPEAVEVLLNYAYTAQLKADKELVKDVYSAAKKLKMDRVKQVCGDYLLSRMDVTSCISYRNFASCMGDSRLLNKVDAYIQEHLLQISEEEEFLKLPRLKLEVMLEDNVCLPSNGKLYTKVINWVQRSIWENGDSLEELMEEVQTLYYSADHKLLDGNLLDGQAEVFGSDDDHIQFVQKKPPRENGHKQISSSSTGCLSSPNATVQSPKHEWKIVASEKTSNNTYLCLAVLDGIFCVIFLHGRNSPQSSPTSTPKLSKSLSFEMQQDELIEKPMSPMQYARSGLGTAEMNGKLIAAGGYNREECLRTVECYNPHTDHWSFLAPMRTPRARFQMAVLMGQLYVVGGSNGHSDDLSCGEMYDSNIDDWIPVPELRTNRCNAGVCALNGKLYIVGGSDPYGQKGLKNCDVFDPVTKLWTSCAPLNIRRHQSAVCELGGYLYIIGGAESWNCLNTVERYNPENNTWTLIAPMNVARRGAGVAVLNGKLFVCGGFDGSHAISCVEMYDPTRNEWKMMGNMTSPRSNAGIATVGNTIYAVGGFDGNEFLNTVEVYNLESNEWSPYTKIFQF

B1: heterogeneous nuclear ribonucleoprotein M (hnRNP M) (protein, UniProt P52272 1-730)
chain: MAAGVEAAAEVAATEIKMEEESGAPGVPSGNGAPGPKGEGERPAQNEKRKEKNIKRGGNRFEPYANPTKRYRAFITNIPFDVKWQSLKDLVKEKVGEVTYVELLMDAEGKSRGCAVVEFKMEESMKKAAEVLNKHSLSGRPLKVKEDPDGEHARRAMQKVMATTGGMGMGPGGPGMITIPPSILNNPNIPNEIIHALQAGRLGSTVFVANLDYKVGWKKLKEVFSMAGVVVRADILEDKDGKSRGIGTVTFEQSIEAVQAISMFNGQLLFDRPMHVKMDERALPKGDFFPPERPQQLPHGLGGIGMGLGPGGQPIDANHLNKGIGMGNIGPAGMGMEGIGFGINKMGGMEGPFGGGMENMGRFGSGMNMGRINEILSNALKRGEIIAKQGGGGGGGSVPGIERMGPGIDRLGGAGMERMGAGLGHGMDRVGSEIERMGLVMDRMGSVERMGSGIERMGPLGLDHMASSIERMGQTMERIGSGVERMGAGMGFGLERMAAPIDRVGQTIERMGSGVERMGPAIERMGLSMERMVPAGMGAGLERMGPVMDRMATGLERMGANNLERMGLERMGANSLERMGLERMGANSLERMGPAMGPALGAGIERMGLAMGGGGGASFDRAIEMERGNFGGSFAGSFGGAGGHAPGVARKACQIFVRNLPFDFTWKMLKDKFNECGHVLYADIKMENGKSKGCGVVKFESPEVAERACRMMNGMKLSGREIDVRIDRNA
B2: nuclear factor associated with dsRNA (NFAR-2) (protein, UniProt Q12906-1 1-894)
chain: MRPMRIFVNDDRHVMAKHSSVYPTQEELEAVQNMVSHTERALKAVSDWIDEQEKGSSEQAESDNMDVPPEDDSKEGAGEQKTEHMTRTLRGVMRVGLVAKGLLLKGDLDLELVLLCKEKPTTALLDKVADNLAIQLAAVTEDKYEILQSVDDAAIVIKNTKEPPLSLTIHLTSPVVREEMEKVLAGETLSVNDPPDVLDRQKCLAALASLRHAKWFQARANGLKSCVIVIRVLRDLCTRVPTWGPLRGWPLELLCEKSIGTANRPMGAGEALRRVLECLASGIVMPDGSGIYDPCEKEATDAIGHLDRQQREDITQSAQHALRLAAFGQLHKVLGMDPLPSKMPKKPKNENPVDYTVQIPPSTTYAITPMKRPMEEDGEEKSPSKKKKKIQKKEEKAEPPQAMNALMRLNQLKPGLQYKLVSQTGPVHAPIFTMSVEVDGNSFEASGPSKKTAKLHVAVKVLQDMGLPTGAEGRDSSKGEDSAEETEAKPAVVAPAPVVEAVSTPSAAFPSDATAEQGPILTKHGKNPVMELNEKRRGLKYELISETGGSHDKRFVMEVEVDGQKFQGAGSNKKVAKAYAALAALEKLFPDTPLALDANKKKRAPVPVRGGPKFAAKPHNPGFGMGGPMHNEVPPPPNLRGRGRGGSIRGRGRGRGFGGANHGGYMNAGAGYGSYGYGGNSATAGYSQFYSNGGHSGNASGGGGGGGGGSSGYGSYYQGDNYNSPVPPKHAGKKQPHGGQQKPSYGSGYQSHQGQQQSYNQSPYSNYGPPQGKQKGYNHGQGSYSYSNSYNSPGGGGGSDYNYESKFNYSGSGGRSGGNSYGSGGASYNPGSHGGYGGGSGGGSSYQGKQGGYSQSNYNSPGSGQNYSGPPSSYQSSQGGYGRNADHSMNYQYR

Molecular target: T1, NS1-binding protein (NS1-BP) (human (endogenous in HeLa and A549))

Row | binding | Molecule
1 | binds | heterogeneous nuclear ribonucleoprotein K (hnRNP K) (from UniProt P61978 1-463)

Molecular target: T1, NS1-binding protein (NS1-BP) (human (endogenous in HeLa and A549))
Remark: another data set of the same source

Row | binding | Molecule
2 | binds | DDX17 (from UniProt Q92841 1-729)
3 | binds | B1

Molecular target: T1, NS1-binding protein (NS1-BP) (human (endogenous in HeLa and A549))
Remark: another data set of the same source

Row | binding | Molecule
4 | binds | Hsp70 (from UniProt P11142-1 1-646)
5 | binds | Hsp90 (from UniProt P08238 1-724)
6 | binds | nuclear cap binding protein (human (endogenous in HeLa))
7 | binds | poly (ADP-ribose) polymerase (PARP-1) (from UniProt P09874 1-1014)
8 | binds | polyadenylate-binding protein 4 (from UniProt Q13310-1 1-644)
9 | binds | B2

Results are given in words; binding and its absence hold for the method and conditions named. In cells and extracts the contact can be indirect. Here binding means that the protein was enriched with, or labelled near, the bait; the list need not be complete.
